Assay results: PubChem BioAssay AID248 (DTP/NCI, 2004)
The list does not hold the whole screen: it is rich in T/C values a quarter to a half above the control, in often repeated tests (any T/C) and in doses without a T/C. Other doses and runs of a compound stand elsewhere. T/C: endpoint of the treated group in % of that of the vehicle group. Some entries give survivors of the animals treated and no T/C: the source holds a T/C of zero for them, seemingly a mark for toxic or unscored doses. Some survivor counts are full or nearly so, which does not show that the dose was tolerated: the source hardly ever lists a survival T/C far under the control, and the zero likely stands for such cases as well. Survivors were counted at the toxicity check, usually on the fifth day, unless a day is given; later deaths do not show. Schedules are NCI's codes, taken here to give the interval after Q, in days (D) or hours (H), and the number of doses after X. Some doses were run more than once; their values stand side by side, smallest first. For survival time, this PubChem deposit counts one and a half times the control or more as active, and values a quarter to a half above the control carry no call in these data; other NCI protocols may use other cut-offs.

Tested on: L1210 leukemia ip in BDF1 mice, survival T/C
Experiment: NCI In Vivo Anticancer Drug Screen. Data for tumor model L1210 Leukemia (intraperitoneal) in B6D2F1 (BDF1) mice
Details: T/C endpoint: mean survival time, higher T/C = longer survival
[1] = dose: 400.0 mg/kg/injection, schedule: Q01DX001 (ip), vehicle: saline
[2] = dose: 200.0 mg/kg/injection, schedule: Q04DX003 (ip), vehicle: Klucel (hydroxypropylcellulose) (HPC)
[3] = dose: 2.0 mg/kg/injection, schedule: Q01DX009 (ip), vehicle: saline
[4] = dose: 200.0 mg/kg/injection, schedule: Q04DX002 (ip), vehicle: saline
[5] = dose: 400.0 mg/kg/injection, schedule: Q01DX001 (ip), vehicle: carboxymethylcellulose (CMC)

CC(=O)[O][Pb]([O]C(C)=O)([O]C(C)=O)[c]1ccccc1 was tested, and the survivor count (dose: 50.0 mg/kg/injection, schedule: Q01DX001 (ip), vehicle: saline) was 3 of 4, the survivor count (dose: 100.0 mg/kg/injection, schedule: Q01DX009 (ip), vehicle: gum acacia) was 3 of 3 and the survivor count (dose: 200.0 mg/kg/injection, schedule: Q01DX009 (ip), vehicle: gum acacia) was 3 of 3. For the same molecule, the survivor count [1] was 0 of 4 and the survivor count (dose: 400.0 mg/kg/injection, schedule: Q04DX002 (ip), vehicle: gum acacia) was 1 of 3.

Oc1cc2ccc3c(c2cc1O)CCc1cn[nH]c1-3 was tested, and the survivor count (dose: 200.0 mg/kg/injection, schedule: Q01DX001 (ip), vehicle: saline with Tween-80) was 3 of 3.

In the case of CSc1nc(NC(=O)CCl)cc(=O)[nH]1, the survivor count (dose: 50.0 mg/kg/injection, schedule: Q01DX009 (ip), vehicle: Klucel (hydroxypropylcellulose) (HPC)) is reported as 1 of 6, 3 of 6, 6 of 6, the survivor count (dose: 100.0 mg/kg/injection, schedule: Q01DX009 (ip), vehicle: Klucel (hydroxypropylcellulose) (HPC)) is reported as 2 of 6 and the survivor count (dose: 100.0 mg/kg/injection, schedule: Q04DX003 (ip), vehicle: Klucel (hydroxypropylcellulose) (HPC)) is reported as 2 of 6. The survivor count [2] was 6 of 6 and the survivor count (dose: 400.0 mg/kg/injection, schedule: Q04DX003 (ip), vehicle: Klucel (hydroxypropylcellulose) (HPC)) was 6 of 6.

In the case of CCc1c(CNc2ccc(C(=O)NC(CC(=O)O)CC(=O)O)cc2)ccc2nc(N)nc(N)c12, the survivor count (dose: 0.5 mg/kg/injection, schedule: Q01DX009 (ip), vehicle: saline) is reported as 3 of 6, the T/C (dose: 1.0 mg/kg/injection, schedule: Q01DX009 (ip), vehicle: saline) is reported as 132 % of control and the T/C [3] is reported as 148 % of control. The survivor count [3] was 6 of 6, the T/C (dose: 2.0 mg/kg/injection, schedule: Q04DX003 (ip), vehicle: saline) was 128 % of control and the survivor count (dose: 3.0 mg/kg/injection, schedule: Q01DX009 (ip), vehicle: saline) was 6 of 6. For the same molecule, the survivor count (dose: 4.0 mg/kg/injection, schedule: Q01DX009 (ip), vehicle: saline) was 6 of 6, the T/C (dose: 4.0 mg/kg/injection, schedule: Q04DX003 (ip), vehicle: saline) was 145 % of control and the survivor count (dose: 8.0 mg/kg/injection, schedule: Q01DX009 (ip), vehicle: saline) was 6 of 6. The T/C (dose: 8.0 mg/kg/injection, schedule: Q04DX003 (ip), vehicle: saline) was 131 % of control, the survivor count (dose: 16.0 mg/kg/injection, schedule: Q01DX009 (ip), vehicle: saline) was 4 of 6 and the survivor count (dose: 16.0 mg/kg/injection, schedule: Q04DX003 (ip), vehicle: saline) was 6 of 6.

O=C1/C(=C/c2ccc3c(c2)OCO3)C2CCC(N2)/C1=C\c1ccc2c(c1)OCO2 was tested, and the survivor count (dose: 200.0 mg/kg/injection, schedule: Q01DX001 (ip), vehicle: other) was 3 of 3.

In the case of CCCCCCCCCCCCCCCCCC(=O)[O][Hg][c]1ccccc1, the survivor count (dose: 40.0 mg/kg/injection, schedule: Q01DX009 (ip), vehicle: saline with Tween-80) is reported as 0 of 6, the survivor count (dose: 64.0 mg/kg/injection, schedule: Q01DX015 (ip), vehicle: carboxymethylcellulose (CMC)) is reported as 1 of 6 and the survivor count (dose: 80.0 mg/kg/injection, schedule: Q01DX001 (ip), vehicle: carboxymethylcellulose (CMC)) is reported as 0 of 4. For the same molecule, the survivor count (dose: 80.0 mg/kg/injection, schedule: Q04DX003 (ip), vehicle: saline) was 0 of 6.

For CCOC(=O)c1ccc(NC(=O)N(C)N=O)cc1, the T/C (dose: 150.0 mg/kg/injection, schedule: Q01DX001 (ip), vehicle: carboxymethylcellulose (CMC)) was 130 % of control, the survivor count (dose: 300.0 mg/kg/injection, schedule: Q01DX001 (ip), vehicle: carboxymethylcellulose (CMC)) was 6 of 10 and the survivor count (dose: 600.0 mg/kg/injection, schedule: Q01DX001 (ip), vehicle: carboxymethylcellulose (CMC)) was 0 of 10. The survivor count (dose: 1200.0 mg/kg/injection, schedule: Q01DX001 (ip), vehicle: carboxymethylcellulose (CMC)) was 0 of 10.

NC1=N/C(=C/[N+](=O)[O-])c2ccccc21 was tested, and the survivor count (dose: 25.0 mg/kg/injection, schedule: Q04DX003 (ip), vehicle: saline) was 3 of 4, the survivor count (dose: 100.0 mg/kg/injection, schedule: Q04DX002 (ip), vehicle: saline) was 0 of 3 and the survivor count [4] was 1 of 3. The survivor count (dose: 400.0 mg/kg/injection, schedule: Q04DX002 (ip), vehicle: saline) was 0 of 3.

For O=C(O)c1cc(S(=O)(=O)Cl)ccc1Cl, the survivor count [2] was 2 of 6 and the survivor count [5] was 1 of 6.

With CCOC(CCl)[N+](C)(C)C (stereo not drawn) the survivor count [4] was 1 of 3.

In the case of C/C=C(/C)C(=O)O[C@H]1CC[C@@]2(C)[C@@H]3CC[C@H]4[C@]5(O)C[C@H](O)[C@@]6(O)[C@@H](CN7C[C@@H](C)CC[C@H]7[C@@]6(C)O)[C@]5(O)C[C@@]42O[C@@]13O, the survivor count (dose: 3.0 mg/kg/injection, schedule: Q04DX003 (ip), vehicle: saline with Tween-80) is reported as 2 of 6, the survivor count (dose: 6.0 mg/kg/injection, schedule: Q04DX003 (ip), vehicle: saline with Tween-80) is reported as 0 of 6 and the survivor count (dose: 8.0 mg/kg/injection, schedule: Q01DX001 (ip), vehicle: saline) is reported as 1 of 6. For the same molecule, the survivor count (dose: 10.0 mg/kg/injection, schedule: Q01DX001 (ip), vehicle: saline) was 2 of 6, the survivor count (dose: 20.0 mg/kg/injection, schedule: Q01DX001 (ip), vehicle: saline) was 0 of 6 and the survivor count (dose: 40.0 mg/kg/injection, schedule: Q01DX001 (ip), vehicle: saline) was 0 of 6. The survivor count (dose: 80.0 mg/kg/injection, schedule: Q01DX001 (ip), vehicle: saline) was 0 of 6, the survivor count (dose: 100.0 mg/kg/injection, schedule: Q01DX001 (ip), vehicle: saline) was 0 of 4 and the survivor count (dose: 200.0 mg/kg/injection, schedule: Q01DX001 (ip), vehicle: saline) was 0 of 4. For the same molecule, the survivor count [1] was 0 of 4.

COc1cc(C=Nc2ccc(C(=O)O)c(O)c2)ccc1N(CCCl)CCCl was tested, and the survivor count (dose: 11.0 mg/kg/injection, schedule: Q01DX009 (ip), vehicle: Klucel (hydroxypropylcellulose) (HPC)) was 0 of 6, the T/C (dose: 12.5 mg/kg/injection, schedule: Q01DX001 (ip), vehicle: carboxymethylcellulose (CMC)) was 132 % of control and the T/C (dose: 16.0 mg/kg/injection, schedule: Q01DX001 (ip), vehicle: carboxymethylcellulose (CMC)) was 127 % of control. The survivor count (dose: 16.0 mg/kg/injection, schedule: Q01DX009 (ip), vehicle: Klucel (hydroxypropylcellulose) (HPC)) was 0 of 6, the T/C (dose: 25.0 mg/kg/injection, schedule: Q01DX001 (ip), vehicle: carboxymethylcellulose (CMC)) was 137 and 148 % of control and the survivor count (dose: 25.0 mg/kg/injection, schedule: Q01DX009 (ip), vehicle: Klucel (hydroxypropylcellulose) (HPC)) was 0 of 6. The T/C (dose: 37.5 mg/kg/injection, schedule: Q01DX001 (ip), vehicle: carboxymethylcellulose (CMC)) was 125 % of control, the survivor count (dose: 37.5 mg/kg/injection, schedule: Q01DX009 (ip), vehicle: Klucel (hydroxypropylcellulose) (HPC)) was 0 of 6 and the survivor count (dose: 50.0 mg/kg/injection, schedule: Q01DX001 (ip), vehicle: carboxymethylcellulose (CMC)) was 0 of 4. The survivor count (dose: 100.0 mg/kg/injection, schedule: Q01DX001 (ip), vehicle: carboxymethylcellulose (CMC)) was 0 of 4, the survivor count (dose: 200.0 mg/kg/injection, schedule: Q01DX001 (ip), vehicle: carboxymethylcellulose (CMC)) was 0 of 4 and the survivor count [5] was 0 of 4.

With O=C(O)c1ccc([N+](=O)[O-])o1 the survivor count (dose: 400.0 mg/kg/injection, schedule: Q01DX009 (ip), vehicle: saline with Tween-80) was 0 of 6 and the survivor count (dose: 400.0 mg/kg/injection, schedule: Q04DX003 (ip), vehicle: other) was 0 of 6.
